Results deposited as PubChem BioAssay AID1259254 (NCATS, 2017).
Test: 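Gene knock-downs that lead to re-replication, shown by excess G2 DNA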 (primary screen). System: human HCT116 colorectal cancer cells. Knock-down reagent: single siRNA against human genes. Timing: 3 days. Measurement: 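Imaged Hoechst DNA stain sorts each cell into a cycle phase by DNA amount; per plate, G2 fraction set to 0% for non-targeting and 100% for GMNN siRNA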. Direction: G2 robust z-score: higher = more G2 cells, more excess DNA replication. Hit rule: 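An siRNA counts as active if its G2 robust z-score lies at least 5 MADs above the screen median; here such calls match roughly 38% of GMNN control or more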.
In all, the deposit lists about 59,000 reagents; below is a part drawn at random. About 1,550 of them (2.6%) were called active. 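G2 share is only a proxy for re-replication; each gene was hit by three separate siRNAs, and active genes were retested.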 Reagents against one gene are numbered here. Not all columns of the deposit are shown. The record does not give: the amount of reagent.

For SPIB #1, the entry reads G2 robust z-score -1.2; inactive. Against SPIB #2, the entry reads G2 robust z-score -0.717; inactive. Against SPIB #3, the values are G2 robust z-score 4.04; inactive. Depletion of POTEKP #1 gave: G2 robust z-score 3.53; inactive. For POTEKP #2 the deposit lists G2 robust z-score 10; active. For POTEKP #3, the entry reads G2 robust z-score -0.861; inactive.

Silencing of HNRNPH1 #1 came out at: G2 robust z-score 2.43; inactive. Knock-down of HNRNPH1 #2 came out at: G2 robust z-score 0.865; inactive. Depletion of HNRNPH1 #3 resulted in: G2 robust z-score 0.147; inactive. With knock-down of NPAS2 #1, the record shows G2 robust z-score -0.211; inactive. After knock-down of NPAS2 #2, the record shows G2 robust z-score 1.69; inactive. For NPAS2 #3, the entry reads G2 robust z-score -0.256; inactive.

As entered above:
HNRNPH1 #2, call = inactive
Entry of POTEKP #2 in “G2 robust z-score”: 10

The listing continues:
With knock-down of MYH11 #1 the results were G2 robust z-score -0.902; inactive. After knock-down of MYH11 #2 the results were G2 robust z-score 2.43; inactive. Against MYH11 #3 the deposit lists G2 robust z-score -0.714; inactive. With knock-down of CD300C #1, the screen gave G2 robust z-score -0.0852; inactive. CD300C #2 gave G2 robust z-score 1.41; inactive. With knock-down of CD300C #3, the screen gave G2 robust z-score 0.052; inactive.

Depletion of GIPR #1 came out at: G2 robust z-score -0.921; inactive. For GIPR #2, the entry reads G2 robust z-score 0.0926; inactive. Depletion of GIPR #3 came out at: G2 robust z-score 0.819; inactive. Silencing of SETD7 #1 gave: G2 robust z-score -0.646; inactive. Against SETD7 #2 the deposit lists G2 robust z-score -0.606; inactive. Against SETD7 #3, the entry reads G2 robust z-score -0.969; inactive.
